According to PubChem BioAssay AID540256 (National Center for Advancing Translational Sciences (NCATS), 2011):
Hit rate of the full screen: of about 300,000 compounds, about 3,700 (1.2%) were called active. This list was built around the results that the source calls inconclusive (neither active nor inactive); the mix of calls is not that of the screen. The call rests on the fitted dose curve; tested in HEK293 cells. Where the call is inconclusive, the potency comes from a doubtful curve fit.

assay: qHTS for Inhibitors of binding or entry into cells for Lassa Virus; settings: Lassa virus pseudotype entry inhibition, cell reporter; activity change, negative = inhibition: at 37.9 µM (top of the series) unless noted; further: nearly all actives have a fitted effect of over 50% in size
On the % scale 0 is the no-effect control and ±100 the full control effect; potency means the concentration at half of the fitted maximal effect.

Structure (SMILES)	Potency	activity change, negative = inhibition
CC(Oc1ccccc1Cl)C(=O)Nc1ccc(S(=O)(=O)N2CCCC2)cc1 (configuration not stated)	inconclusive: 22.4 µM [inhibitor, single point]	–
Cc1onc(-c2ccccc2Cl)c1C(=O)N1CCOC12CCCCC2	inconclusive: 11.2 µM [inhibitor, partial curve, poor fit]	–
CCCc1cc(N2CCCC2)n2nc(C)c(-c3ccccc3)c2n1	–	inactive: -26.7%
COc1ccc(Nc2ncnc3sccc23)cc1OC	–	inactive: 18.7% [at 46.1 µM]
COc1ccc(-c2nnc(SCC(C)C)o2)cc1	inconclusive: 6.31 µM [inhibitor, partial curve, poor fit]	–
Cc1c(/C=N/Nc2nc3ccccc3[nH]2)c2ccccc2n1C	inconclusive: 35.5 µM [inhibitor, single point]	–
CSCc1ccc(C(=O)NCc2ccc(C)cc2)cc1	inconclusive: 35.5 µM [inhibitor, single point]	–
Cn1sc(NC(=O)c2ccccc2Cl)nc1=O	inconclusive: 7.3 µM [activator, partial curve, poor fit]	–
FC(F)(F)c1cccc(N2CCC(N=CN3CCCCCC3)=N2)c1	–	inactive: 16.3%
CCCc1ccc(OCC(=O)Nc2sc3c(c2C(=O)OCC)CCC(C(C)(C)C)C3)cc1 (configuration not stated)	–	inactive: 0.946% [at 46.1 µM]
CC(C)C(NC(=O)OCc1ccccc1)C(=O)OCC(=O)N1CCCCC1 (configuration not stated)	–	inactive: -1.69%
O=C1[C@@H]2CSCN2C(=O)CN1Cc1cccc(C(F)(F)F)c1	inconclusive: 0.562 µM [inhibitor, full curve, poor fit]	–
O=C(c1noc2c1CCCC2)N1CCc2ccccc2C1	inconclusive: 35.5 µM [inhibitor, single point]	–
O=C(NC1CC(=O)N(c2ccc(Cl)cc2)C1)c1cc2ccccc2o1 (configuration not stated)	–	inactive: -21.7% [at 46.1 µM]
COc1ccc(NC(=O)NNC(=O)c2ccccc2-n2cccc2)cc1OC	–	inactive: 0.734% [at 46.1 µM]
Cc1ccccc1-c1nc(-c2ccccn2)no1	active: 1.26 µM	–
COc1ccc(-c2cc3ccc(O)c(CN4CCN(C)CC4)c3oc2=O)cc1OC	–	inactive: 17.4% [at 46.1 µM]
CCn1c(/C=C/c2c(C)[nH]c3ccccc23)nc2ccccc2c1=O	–	inactive: 3.59%
CC(CN1CCCCC1)OC(=O)c1cccc(F)c1 (configuration not stated)	inconclusive: 31.6 µM [activator, single point]	–
Cc1ccc(-c2nc(S(=O)(=O)c3ccc(C)cc3)c(N(C)C)o2)cc1	inconclusive: 35.5 µM [inhibitor, single point]	–
COc1cc(OC)c(OC)cc1/C=N/n1c(COc2ccccc2)n[nH]c1=S	inconclusive: 35.5 µM [inhibitor, partial curve, poor fit]	–
O=S(=O)(c1cccs1)N1CN(CC2CCCO2)c2nc3ccccc3nc21 (configuration not stated)	inconclusive: 6.51 µM [activator, single point]	–
O=C(O)c1ccc2c(c1)C(=O)N(c1ncccn1)C2=O	inconclusive: 15.8 µM [activator, partial curve, poor fit]	–
Cc1ccc(C(O)Cn2cc([N+](=O)[O-])nc2C)cc1 (configuration not stated)	inconclusive: 4.47 µM [activator, full curve]	–

Exported in markdown: entries from further up.

| Structure (SMILES) | Potency | activity change, negative = inhibition |
| --- | --- | --- |
| COc1ccc(-c2cc3ccc(O)c(CN4CCN(C)CC4)c3oc2=O)cc1OC | – | inactive: 17.4% [at 46.1 µM] |
| CCn1c(/C=C/c2c(C)[nH]c3ccccc23)nc2ccccc2c1=O | – | inactive: 3.59% |
| CC(CN1CCCCC1)OC(=O)c1cccc(F)c1 (configuration not stated) | inconclusive: 31.6 µM [activator, single point] | – |

(next part)

Structure (SMILES)	Potency	activity change, negative = inhibition
CCOC(=O)CC(=O)CSc1nc2ccc(C)cc2cc1C#N	–	inactive: 0.0088%
O=C(Nc1nc2ccccc2[nH]1)c1ccc(F)cc1	active: 6.51 µM	–
CCN(c1ccccc1)S(=O)(=O)c1ccc(NC(=O)c2nc(S(C)(=O)=O)ncc2Cl)cc1	inconclusive: 12.6 µM [inhibitor, partial curve, poor fit]	–
CCOC(=O)c1cnc2ccc(OCC)cc2c1NCc1ccccc1OC	active: 8.91 µM	–
CC(NC(=O)c1cc2ccccc2o1)c1cccs1 (configuration not stated)	inconclusive: 18.3 µM [inhibitor, partial curve]	–
CCOCCOC(=O)c1ccc2c(c1)N(Cc1ccccc1C#N)C(=O)c1ccccc1S2(=O)=O	inconclusive: 35.5 µM [inhibitor, single point]	–
O=S(=O)(c1ccc(NCCCO)nc1)N1CCOCC1	inconclusive: 10 µM [activator, partial curve]	–
CSc1nnc(NC(=O)c2nc(S(=O)(=O)Cc3cccc(C)c3)ncc2Cl)s1	inconclusive: 11.2 µM [inhibitor, partial curve, poor fit]	–
CC1CC(C)(C)CC2(C1)NC(=O)N(CC(=O)N(C)Cc1nc3ccccc3c(=O)[nH]1)C2=O (configuration not stated)	inconclusive: 35.5 µM [inhibitor, single point]	–
CCc1ccc(C(=O)COC(=O)C(NC(=O)C2CCC(C)CC2)C(C)C)cc1 (configuration not stated)	–	inactive: -3.91% [at 46.1 µM]
COc1ccc(Cn2c(-c3ccc(OC)c(O)c3)nc3ccccc32)cc1O	inconclusive: 11.2 µM [inhibitor, single point]	–
O=C(Nc1ccc(-c2nnc(-c3ccccc3)o2)cc1)c1ccc(Br)o1	inconclusive: 2.51 µM [inhibitor, partial curve, poor fit]	–
NS(=O)(=O)c1ccc(N/C=C\C(=O)c2ccc3ccccc3c2)cc1	–	inactive: -4.49%
O=C(Nc1ccccc1)c1cc2c(=O)c3ccccc3oc2nc1C(F)(F)F	–	inactive: 0.28%
NNC(=O)CNC(c1ccccc1)c1cc(Br)ccc1NC(=O)c1ccccc1Br (configuration not stated)	inconclusive: 29.1 µM [inhibitor, single point]	–
Cn1c(/C=N/NC(=O)c2ccccc2)nc2ccccc21	inconclusive: 23.1 µM [inhibitor, partial curve, poor fit]	–
CS(=O)(=O)N1CCC(C(=O)Nc2ccc(OCc3ccccc3)cc2)CC1	–	inactive: -4.79%
O=S(=O)(Cc1ccccc1)Nc1ccccc1Br	inconclusive: 6.31 µM [activator, single point]	–
C=CCOc1ccc(CNn2c(C)n[nH]c2=S)cc1OC	inconclusive: 14.1 µM [activator, partial curve, poor fit]	–
O=C1C(Cl)=C(Nc2ccccc2O)C(=O)N1CCc1ccccc1	inconclusive: 4.47 µM [inhibitor, partial curve, poor fit]	–
COc1ccc(CCN(C)C(=O)c2cc(S(=O)(=O)N3CCCCCC3)ccc2OC)cc1OC	–	inactive: -14.2%
COC(=O)c1ccc(NC(=O)c2ccc3nc(C)sc3c2)cc1	–	inactive: 9.22%
COc1cccc(CNc2cc(CSc3ccc(Cl)cc3)nc(C)n2)c1	inconclusive: 25.1 µM [inhibitor, partial curve, poor fit]	–
Clc1cccc(CN2CCC(Cc3ccccc3)CC2)c1	inconclusive: 13 µM [inhibitor, partial curve, poor fit]	–

Structure (SMILES)	Potency	activity change, negative = inhibition
Cc1ccc(NC(=O)CN2CCN(C(=O)C3CCCO3)CC2)c(C)c1 (configuration not stated)	inconclusive: 0.316 µM [inhibitor, partial curve, poor fit]	–
Cc1ccc2nc3c(cc(C(=O)NC4CCCC4)c(=N)n3C(C)C)c(=O)n2c1	–	inactive: 7.16% [at 46.1 µM]
COc1cc2c(cc1OC)C(C)N(C(=O)c1cc(C)on1)CC2 (configuration not stated)	inconclusive: 0.794 µM [inhibitor, full curve, poor fit]	–
COc1ccccc1Nc1nc(-c2ccccc2)c(CC(=O)O)s1	–	inactive: -2.2% [at 46.1 µM]
CCOC(=O)c1c(-c2ccc(OC)c(OC)c2)csc1NC(=O)c1ccccc1F	–	inactive: -5.54% [at 46.1 µM]
COc1ccc(C(=O)NCCCN2CCOCC2)cc1S(=O)(=O)N1CCCc2ccccc21	inconclusive: 14.1 µM [inhibitor, single point]	–
COc1ccc(-c2cc(-c3cc(OC)ccc3O)[nH]n2)cc1	inconclusive: 35.5 µM [inhibitor, single point]	–
Nc1cccc(-c2nc3ncccc3o2)c1	inconclusive: 20 µM [activator, single point]	–
Cc1cc(N2CCN(C)CC2)nc2ccc(NC(=O)Nc3ccc(F)cc3F)cc12	inconclusive: 1 µM [activator, full curve, poor fit]	–
O=C(NCCC1=CCCCC1)NC12CC3CC(CC(C3)C1)C2	inconclusive: 20.6 µM [inhibitor, single point]	–
CCOc1ccc(N2CC(=O)N(c3ccc(OCC)cc3)CC2=O)cc1	–	inactive: 4.08%
COC(=O)C1=C(C(=O)c2ccccc2)C(c2ccc(O)c(OC)c2)n2nnnc2N1 (configuration not stated)	–	inactive: 0.081%
CCCNS(=O)(=O)c1ccc(OCC(=O)N2CCN(Cc3ccc4c(c3)OCO4)CC2)c(C)c1	inconclusive: 25.1 µM [inhibitor, single point]	–
COc1cc(OC)c(S(=O)(=O)Nc2ccc(C)cn2)cc1NC(C)=O	–	inactive: -10.7%
N#Cc1nc(-c2ccco2)oc1NCCc1ccccc1	–	inactive: 18.3%
O=C(NCc1ccccc1F)Nc1ccc([N+](=O)[O-])cc1	inconclusive: 0.891 µM [inhibitor, single point]	–
COc1ccc([N+](=O)[O-])c(OC)c1C(=O)Nc1ccc(F)cc1F	–	inactive: -10.1% [at 46.1 µM]
Cc1ccc(CSC2=Nc3ccccc3C3=NC(CCC(=O)NCc4cccs4)C(=O)N23)c(C)c1 (configuration not stated)	inconclusive: 11.2 µM [inhibitor, single point]	–
COc1ccc(Nc2ccc3cc(S(=O)(=O)N4CCCC4)ccc3n2)cc1OC	–	inactive: -20.5% [at 46.1 µM]
COc1ccc(NC(=O)C(=O)NCC(c2ccco2)N2CCc3ccccc3C2)cc1 (configuration not stated)	inconclusive: 10 µM [inhibitor, partial curve]	–
Brc1ccc(C2C3=C(Nc4ncnn42)c2ccccc2OC3c2ccncc2)cc1 (configuration not stated)	inconclusive: 25.9 µM [inhibitor, single point]	–
COc1cccc(CNCc2ccc(OC)c3ccccc23)c1OC	inconclusive: 0.631 µM [activator, single point]	–
NC(=O)C1CCN(C2=C(Cl)C(=O)c3ccccc3C2=O)CC1	inconclusive: 16.4 µM [inhibitor, partial curve, poor fit]	–
OC(c1ccncc1)(c1ccc(F)cc1)c1ccc(F)cc1	inconclusive: 13 µM [inhibitor, partial curve, poor fit]	–
